Source: PubChem BioAssay AID2517 (National Center for Advancing Translational Sciences (NCATS), 2010)
Several values for one entry are separate records, joined by “and”; a condition that tells them apart may be missing. Equal entries are not always repeated. Screen size: about 350,000 compounds; about 1,200 (0.34%) were called active. Inconclusive means that the source gave no clear call. Such entries were picked first, then a sample of the others. The call rests on the fitted dose curve; in most records, active means well fitted inhibition curve with a large enough effect; inconclusive means small, poorly fitted or top-dose-only effect; inactive means no such curve, though single readings can be large or run the other way. Where the call is inconclusive, the potency comes from a doubtful curve fit.

Sequences of proteins named here, by UniProt entry; tags and fusion partners are left off.
UniProt P27695, whole entry, looked up: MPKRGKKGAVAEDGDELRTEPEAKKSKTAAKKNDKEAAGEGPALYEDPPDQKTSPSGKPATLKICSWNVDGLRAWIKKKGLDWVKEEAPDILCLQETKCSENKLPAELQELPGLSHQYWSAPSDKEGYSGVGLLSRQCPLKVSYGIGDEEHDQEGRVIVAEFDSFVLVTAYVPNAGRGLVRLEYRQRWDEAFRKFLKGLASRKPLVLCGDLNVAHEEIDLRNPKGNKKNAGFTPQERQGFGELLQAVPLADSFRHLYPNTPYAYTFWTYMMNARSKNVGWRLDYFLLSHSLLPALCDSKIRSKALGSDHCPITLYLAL

molecular target: DNA repair nuclease/redox regulator APEX1 (Homo sapiens) (UniProt P27695); assay: qHTS Assay for Inhibitors of the Human Apurinic/apyrimidinic Endonuclease 1 (APE1); conditions: recombinant APE1, TAMRA/BHQ-2 abasic DNA cleavage fluorescence; series mostly up to 65.8 µM; further: nearly all actives have a fitted effect of over 55% in size
Method in brief: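 Endonuclease cleavage of a quenched abasic-site DNA duplex (50 nM) by APE1 (0.75 nM) was tracked by TAMRA dequenching. Compounds were preincubated with enzyme 15 min at room temperature; data normalized to buffer-only and DMSO wells plus NSC13755 control.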
Potency means the concentration at half of the fitted maximal effect.

Row | SMILES | Potency
1 | CC1=CC2(O)OCCN(CCO)C2=CC1=O (configuration not stated) | inconclusive: 7.94 µM [inhibitor, partial curve]
2 | CCCC(=O)N1CCN(Cc2nc3cc([N+](=O)[O-])ccc3n2C)CC1 | inactive
3 | O=C(c1ccc(C(F)(F)F)cc1)N1CCC(=O)N([C@H](COCc2ccc(Cl)cc2)Cc2ccccc2)CC1 | inconclusive: 1.78 µM [inhibitor, full curve]
4 | O=C(Nc1cnn(Cc2ccc(Cl)c(Cl)c2)c1)c1nc2ncccn2n1 | inactive
5 | CCOc1ccc(NC(=S)N(CCc2c(C)[nH]c3ccccc23)Cc2cccnc2)cc1 | inconclusive: 3.16 µM [inhibitor, single point]
6 | O=[N+]([O-])c1nn(-c2ccc3c(c2)OCCO3)n(O)c1=NC1CCN(Cc2ccccc2)CC1 | inconclusive: 20 µM [inhibitor, single point]
7 | NS(=O)(=O)c1ccc(CCNC(=O)Cc2ccc(S(=O)(=O)N3CCCC3)s2)cc1 | inconclusive: 39.8 µM [inhibitor, single point]
8 | O=C(Nc1ccc(Cl)c(Cl)c1)c1cccnc1 | inactive
9 | CC[C@H](C)[C@H](NC(=O)[C@H](Cc1ccccc1)NC(=O)[C@H](CCC(=O)O)NC(=O)[C@H](CCCCN)NC(=O)[C@H](C)NC(=O)[C@H](C)NC(=O)[C@H](CCC(N)=O)NC(=O)CNC(=O)[C@H](CCC(=O)O)NC(=O)[C@H](CC(C)C)NC(=O)[C@H](Cc1ccc(O)cc1)NC(=O)[C@H](CO)NC(=O)[C@H](CO)NC(=O)[C@@H](NC(=O)[C@H](CC(=O)O)NC(=O)[C@H](CO)NC(=O)[C@@H](NC(=O)[C@H](Cc1ccccc1)NC(=O)[C@@H](NC(=O)CNC(=O)[C@H](CCC(=O)O)NC(=O)[C@H](C)NC(=O)[C@@H](N)Cc1cnc[nH]1)[C@@H](C)O)[C@@H](C)O)C(C)C)C(=O)N[C@@H](C)C(=O)N[C@@H](Cc1c[nH]c2ccccc12)C(=O)N[C@@H](CC(C)C)C(=O)N[C@H](C(=O)N[C@@H](CCCCN)C(N)=O)C(C)C | inconclusive: 44.7 µM [inhibitor, single point]
10 | O=C(CN1CCN(CCN2C(=O)c3cccc4cccc(c34)C2=O)CC1)c1ccc(F)cc1 | inconclusive: 15.8 µM [inhibitor, partial curve]
11 | N#C/C(=C\c1ccco1)C(=O)NCC1CCCO1 (configuration not stated) | inconclusive: 39.8 µM [inhibitor, single point]
12 | COc1ccc([N+](=O)[O-])c(S(=O)(=O)c2ccc(Cl)cc2)n1 | inconclusive: 3.55 µM [inhibitor, single point]
13 | O=C(Cc1ccccc1)NO | inactive
14 | COc1cc(N)c(Cl)cc1C(=O)OCCN1CCCCC1 | inactive and inconclusive: 25.1 µM [inhibitor, partial curve]
15 | COc1ccc(-c2ccc(C#N)c(SCC(=O)NCc3ccco3)n2)cc1OC | inconclusive: 25.1 µM [inhibitor, single point]
16 | O=C(NC(=S)Nc1ccc(N2CCCC2)cc1)c1ccccc1[N+](=O)[O-] | inconclusive: 44.7 µM [inhibitor, single point]
17 | COCCOC(=O)C1=C(C)NC(=O)NC1c1ccco1 (configuration not stated) | inconclusive: 44.7 µM [inhibitor, single point]
18 | Cc1nc(N2CCCCC2)c2ccsc2n1 | inconclusive: 1.78 µM [inhibitor, partial curve]
19 | COc1ccccc1NC(=O)Nc1c(C)nn(C)c1C | inconclusive: 14.1 µM [inhibitor, partial curve, poor fit]

Row | SMILES | Potency
20 | COC(=O)c1cc(C(=O)OCC(=O)Nc2ccccc2OC(F)F)cc([N+](=O)[O-])c1 | inactive
21 | O=[N+]([O-])c1cc(Cl)c(O)c2ncccc12 | inconclusive: 35.5 µM [inhibitor, single point]
22 | O=C(COc1ccc(Br)cc1Br)NC(=S)N1CCCc2ccccc21 | inactive
23 | O=C(/C=C/c1ccc(Br)o1)Nc1nccs1 | inconclusive: 31.6 µM [inhibitor, single point]
24 | O=C(COc1cccc2cccnc12)N/N=C/c1cccn1-c1ccc(F)cc1 | inconclusive: 14.1 µM [inhibitor, partial curve, poor fit]
25 | O=C(Nc1ccc2nc3n(c(=O)c2c1)CCCCC3)c1ccccn1 | inconclusive: 12.6 µM [inhibitor, partial curve, poor fit]
26 | O=C1NC(c2cccs2)Nc2sc3c(c21)CCCC3 (configuration not stated) | inconclusive: 39.8 µM [inhibitor, single point]
27 | CC(C)(C)NC(=O)C(=O)NNC(=O)c1cccc(F)c1 | inconclusive: 0.199 µM [inhibitor, full curve]
28 | Nc1cc2c3c(cccc3c1)C(=O)N(CCN1CCCC1)C2=O | inconclusive: 15.8 µM [inhibitor, partial curve]
29 | Cc1ccc(NC(=O)CC2SC(=O)N(c3ccccc3)C2=O)cc1 (configuration not stated) | inactive
30 | Cc1ccc(/C=C2/NC(=O)N(Cc3ccccc3)C2=O)o1 | inconclusive: 44.7 µM [inhibitor, partial curve, poor fit]
31 | Cc1cccc(N=Nc2c(N)n[nH]c2-c2ccc(Cl)cc2)c1 | inconclusive: 5.01 µM [inhibitor, full curve]
32 | N#C/C(=C\c1cccc(O)c1)C(=O)Nc1ccc2c(c1)OCCO2 | inconclusive: 3.98 µM [inhibitor, partial curve, poor fit]
33 | O=C(/C=C/c1ccco1)NC(=S)Nc1ccccn1 | inactive
34 | CCCCCc1c2c(cc(O)c1C(=O)O)OC(=O)c1cc(C(=O)CCCC)c(OC)cc1O2 | inconclusive: 7.94 µM [inhibitor, partial curve]
35 | CCC(=O)c1ccc(CCCCCC(=O)O)s1 | inconclusive: 39.8 µM [inhibitor, single point]
36 | N#Cc1nc(-c2ccco2)oc1NCCCn1ccnc1 | inconclusive: 0.0224 µM [inhibitor, full curve, poor fit]
37 | O=c1c(O)cc(C2Oc3cc(O)cc(O)c3CC2O)cc2c(C3Oc4cc(O)cc(O)c4CC3O)cc(O)c(O)c12 (configuration not stated) | active: 0.501 µM

A second format for 9 compounds above.
Row	SMILES	Potency
25	O=C(Nc1ccc2nc3n(c(=O)c2c1)CCCCC3)c1ccccn1	inconclusive: 12.6 µM [inhibitor, partial curve, poor fit]
26	O=C1NC(c2cccs2)Nc2sc3c(c21)CCCC3 (configuration not stated)	inconclusive: 39.8 µM [inhibitor, single point]
27	CC(C)(C)NC(=O)C(=O)NNC(=O)c1cccc(F)c1	inconclusive: 0.199 µM [inhibitor, full curve]
28	Nc1cc2c3c(cccc3c1)C(=O)N(CCN1CCCC1)C2=O	inconclusive: 15.8 µM [inhibitor, partial curve]
29	Cc1ccc(NC(=O)CC2SC(=O)N(c3ccccc3)C2=O)cc1 (configuration not stated)	inactive
30	Cc1ccc(/C=C2/NC(=O)N(Cc3ccccc3)C2=O)o1	inconclusive: 44.7 µM [inhibitor, partial curve, poor fit]
31	Cc1cccc(N=Nc2c(N)n[nH]c2-c2ccc(Cl)cc2)c1	inconclusive: 5.01 µM [inhibitor, full curve]
32	N#C/C(=C\c1cccc(O)c1)C(=O)Nc1ccc2c(c1)OCCO2	inconclusive: 3.98 µM [inhibitor, partial curve, poor fit]
33	O=C(/C=C/c1ccco1)NC(=S)Nc1ccccn1	inactive
